Experimental data taken from publication doi:10.1101/569251.
Where two headings read alike, the source gives them in different places. Results are given in words; binding and its absence hold for the method and conditions named. For part of these data: Binding seen in cells or lysates may run through a third protein. Some entries that bind do so weakly or less than the wild type. Sequences can lack the tags named with a protein.

B1: SEPT5 (without MBP) (protein, UniProt Q99719-1 1-369)
chain: MSTGLRYKSKLATPEDKQDIDKQYVGFATLPNQVHRKSVKKGFDFTLMVAGESGLGKSTLVHSLFLTDLYKDRKLLSAEERISQTVEILKHTVDIEEKGVKLKLTIVDTPGFGDAVNNTECWKPITDYVDQQFEQYFRDESGLNRKNIQDNRVHCCLYFISPFGHGLRPVDVGFMKALHEKVNIVPLIAKADCLVPSEIRKLKERIREEIDKFGIHVYQFPECDSDEDEDFKQQDRELKESAPFAVIGSNTVVEAKGQRVRGRLYPWGIVEVENQAHCDFVKLRNMLIRTHMHDLKDVTCDVHYENYRAHCIQQMTSKLTQDSRMESPIPILPLPTPDAETEKLIRMKDEELRRMQEMLQRMKQQMQDQ
B2: SEPT6 (protein, UniProt Q14141-2 1-427)
chain: MAATDIARQVGEGCRTVPLAGHVGFDSLPDQLVNKSVSQGFCFNILCVGETGLGKSTLMDTLFNTKFEGEPATHTQPGVQLQSNTYDLQESNVRLKLTIVSTVGFGDQINKEDSYKPIVEFIDAQFEAYLQEELKIRRVLHTYHDSRIHVCLYFIAPTGHSLKSLDLVTMKKLDSKVNIIPIIAKADAISKSELTKFKIKITSELVSNGVQIYQFPTDDESVAEINGTMNAHLPFAVIGSTEELKIGNKMMRARQYPWGTVQVENEAHCDFVKLREMLIRVNMEDLREQTHTRHYELYRRCKLEEMGFKDTDPDSKPFSLQETYEAKRNEFLGELQKKEEEMRQMFVQRVKEKEAELKEAEKELHEKFDRLKKLHQDEKKKLEDKKKSLDDEVNAFKQRKTAAELLQSQGSQAGGSQTLKRDKEKKN
B3: MBP-SEPT5 (protein, UniProt Q99719-1 1-369)
chain: B1 chain
B4: MBP-SEPT2 (protein, UniProt Q15019-1 1-361)
chain: MSKQQPTQFINPETPGYVGFANLPNQVHRKSVKKGFEFTLMVVGESGLGKSTLINSLFLTDLYPERVIPGAAEKIERTVQIEASTVEIEERGVKLRLTVVDTPGYGDAINCRDCFKTIISYIDEQFERYLHDESGLNRRHIIDNRVHCCFYFISPFGHGLKPLDVAFMKAIHNKVNIVPVIAKADTLTLKERERLKKRILDEIEEHNIKIYHLPDAESDEDEDFKEQTRLLKASIPFSVVGSNQLIEAKGKKVRGRLYPWGVVEVENPEHNDFLKLRTMLITHMQDLQEVTQDLHYENFRSERLKRGGRKVENEDMNKDQILLEKEAELRRMQEMIARMQAQMQMQMQGGDGDGGALGHHV

How the values were obtained:
[1] = target: T1, SEPT7 (residues 29-437) with N-terminal His-tag (human) (UniProt Q16181); experiment: pull-down + SEC
T1 sequence: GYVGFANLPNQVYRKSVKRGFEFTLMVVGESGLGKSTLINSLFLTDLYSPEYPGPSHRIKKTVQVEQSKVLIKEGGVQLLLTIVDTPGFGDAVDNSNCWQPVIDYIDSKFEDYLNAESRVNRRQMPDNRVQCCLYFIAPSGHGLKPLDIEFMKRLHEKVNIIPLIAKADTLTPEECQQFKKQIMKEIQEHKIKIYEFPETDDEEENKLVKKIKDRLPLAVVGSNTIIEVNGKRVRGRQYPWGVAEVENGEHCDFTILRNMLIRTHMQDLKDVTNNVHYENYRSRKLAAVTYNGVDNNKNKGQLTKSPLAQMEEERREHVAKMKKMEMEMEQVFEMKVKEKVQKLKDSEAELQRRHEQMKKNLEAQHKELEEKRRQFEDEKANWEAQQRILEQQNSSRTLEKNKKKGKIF

SEPT6 (human) = target: T2, SEPT6 (human) (UniProt Q14141)
T2 sequence: B2 chain

[2] = target: T1, SEPT7 (residues 29-437) with N-terminal His-tag (human); experiment: pull-down + SEC; remark: listed apart in the source
[3] = target: T1, SEPT7 (residues 29-437) with N-terminal His-tag (human)

Binder | binding [1] | binding (SEPT6 (human)) | binding [2] | binding [3]
B1 | binds | binds |  | 
B2 | binds |  | binds | binds
B3 | binds | binds |  | 
B4 |  | binds | binds | 
